Construct, isoform or probe ends are uncertain for at least one entry. No signal at the amounts used counts as a negative.
Test system: MdH1.1 (Malus domestica)
Assay: EMSA
Conditions: EMSA: LightShift kit binding buffer (10x stock), 1 ug/uL poly(dI-dC), 400 fmol biotin probe in 20 uL, room temperature 20 min, 6.5% native PAGE; salt and pH not stated; recombinant protein; protein details: His (pET-32a-c); label: biotin

Chains of the proteins cited; added tags and fusions are not shown. A line that says so, or that is headed by a name, gives the form on record, which may keep a tag or linker.
MdH1.1 (Malus domestica), one chain, as listed by the source: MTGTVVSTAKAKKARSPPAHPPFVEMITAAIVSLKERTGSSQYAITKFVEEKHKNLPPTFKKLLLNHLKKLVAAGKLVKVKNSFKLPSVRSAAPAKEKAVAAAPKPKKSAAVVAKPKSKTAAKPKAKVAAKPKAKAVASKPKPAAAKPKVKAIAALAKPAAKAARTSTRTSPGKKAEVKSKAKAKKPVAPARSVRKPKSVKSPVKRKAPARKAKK

Sequence	binding result
ACACGTTGTGAGACAATGGCGCGACTTGAATTGAG (double strand) [MdPH5 probe]	binds
CTCAATATATCGGGGGAAAAAAAAAATGGTAAATGAAC (double strand) [MdMYB73-1 mutant (mT1)]	no binding
CTCAATATATCGGGGGAAGCCCGAAATGGTAAATGAAC (double strand) [MdMYB73-1 (T1)]	binds
CTGCTGATTCTGTCTCTTTCCCGAGAAAAACCCAG (double strand) [MdCIbHLH1 probe]	binds
TTAATCTGATTATTATCTGTAAAAAAAATACTTTTTTT (double strand) [MdMYB73-2 mutant (mT2)]	no binding
TTAATCTGATTATTATCTGTGTGCGAAATACTTTTTTT (double strand) [MdMYB73-2 (T2)]	binds
TTTATAACCGGCATAAAAAAAAAACTTAAGATGT (double strand) [MdMYB73-3 mutant (mT3)]	no binding
TTTATAACCGGCATTACGCGCGCTCTTAAGATGT (double strand) [MdMYB73-3 (T3)]	binds

Test system: MdMYB73 (Malus domestica)
Assay: EMSA
Conditions: EMSA: LightShift kit binding buffer (10x stock), 1 ug/uL poly(dI-dC), 400 fmol biotin probe in 20 uL, room temperature 20 min, 6.5% native PAGE; salt and pH not stated; recombinant protein; protein details: His (pET-32a-c); label: biotin

Sequence	binding result
AATTTTCATGTAATGAAAAAAAATTTTAGAAGAAAATG (double strand) [MdH1.1-5m]	no binding
AATTTTCATGTAATGAACAGTTGTTTTAGAAGAAAATG (double strand) [MdH1.1-5]	binds
CAGAATTTCACGATTCTTAAAAAATTTCACTCCCCTG (double strand) [MdH1.1-3m]	no binding
CAGAATTTCACGATTCTTTAACCATTTCACTCCCCTG (double strand) [MdH1.1-3]	binds
CTAAAATCCATCAACTAAAAAAAAAGTTACACCCATT (double strand) [MdH1.1-2m]	no binding
CTAAAATCCATCAACTACAACCAAAGTTACACCCATT (double strand) [MdH1.1-2]	binds
GTACAATGACGAGAATTATAAAAAAACATTCTTTTATC (double strand) [MdH1.1-4m]	no binding
GTACAATGACGAGAATTATAACCATTCATTCTTTTATC (double strand) [MdH1.1-4]	binds
TGATTCTGCTTCCGAGTAAAAAAAGTCAAACCGC (double strand) [MdH1.1-1m]	no binding
TGATTCTGCTTCCGAGTTAACTGAGTCAAACCGC (double strand) [MdH1.1-1]	binds
